Laboratory results published in publication PMC7093646.
No constants are given. Whether binding was seen depends on the method and setting. In cells and extracts the contact can be indirect. Some entries that bind do so weakly or less than the wild type. Each block holds one molecule with its values, some of them ahead of it.

Sequences of proteins named here, by UniProt entry; tags and fusion partners are left off. A change or cut given only in a name is not applied to a line headed by its entry. Residues count along the entry.
UniProt S4R2P9, residues 31-928: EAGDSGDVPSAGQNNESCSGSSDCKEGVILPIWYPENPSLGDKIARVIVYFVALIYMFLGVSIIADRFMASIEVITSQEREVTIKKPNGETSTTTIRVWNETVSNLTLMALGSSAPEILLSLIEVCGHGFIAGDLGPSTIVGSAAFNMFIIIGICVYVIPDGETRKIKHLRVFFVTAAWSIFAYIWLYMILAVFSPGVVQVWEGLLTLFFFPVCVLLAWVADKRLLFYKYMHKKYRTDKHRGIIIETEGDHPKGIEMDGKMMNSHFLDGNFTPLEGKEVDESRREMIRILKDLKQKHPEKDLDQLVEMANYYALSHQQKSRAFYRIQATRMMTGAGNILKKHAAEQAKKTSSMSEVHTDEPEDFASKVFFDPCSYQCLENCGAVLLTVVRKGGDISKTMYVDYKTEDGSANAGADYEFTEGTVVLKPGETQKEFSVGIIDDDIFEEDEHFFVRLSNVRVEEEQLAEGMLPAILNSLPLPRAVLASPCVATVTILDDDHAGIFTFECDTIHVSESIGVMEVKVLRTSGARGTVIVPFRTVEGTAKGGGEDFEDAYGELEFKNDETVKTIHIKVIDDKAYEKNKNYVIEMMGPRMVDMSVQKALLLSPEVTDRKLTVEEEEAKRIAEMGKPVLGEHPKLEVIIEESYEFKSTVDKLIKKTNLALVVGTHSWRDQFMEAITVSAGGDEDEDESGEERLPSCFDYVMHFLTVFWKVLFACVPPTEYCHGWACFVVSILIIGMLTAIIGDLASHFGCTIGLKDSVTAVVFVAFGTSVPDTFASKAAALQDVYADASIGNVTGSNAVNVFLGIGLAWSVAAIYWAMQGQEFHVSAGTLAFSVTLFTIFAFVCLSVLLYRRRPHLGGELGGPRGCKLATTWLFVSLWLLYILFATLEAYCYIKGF

Tests used:
[1] = molecular target: T1, ANO1 (Ca2+-activated Cl- channel encoded by Ano1) (mouse (endogenous in small intestine muscle and ICC)) (UniProt Q8BHY3); test: co-IP; membrane fraction (500 ug) of mouse small intestine smooth muscle in IP/lysis buffer (50 mM Tris-HCl pH 8, 0.5% NP40); anti-ANO1 or anti-NCX3 antibody crosslinked to Protein-A/G magnetic beads, overnight at 4°C; elution with low pH buffer; detection by ProteinSimple Wes; non-immune rabbit IgG as control
T1 sequence: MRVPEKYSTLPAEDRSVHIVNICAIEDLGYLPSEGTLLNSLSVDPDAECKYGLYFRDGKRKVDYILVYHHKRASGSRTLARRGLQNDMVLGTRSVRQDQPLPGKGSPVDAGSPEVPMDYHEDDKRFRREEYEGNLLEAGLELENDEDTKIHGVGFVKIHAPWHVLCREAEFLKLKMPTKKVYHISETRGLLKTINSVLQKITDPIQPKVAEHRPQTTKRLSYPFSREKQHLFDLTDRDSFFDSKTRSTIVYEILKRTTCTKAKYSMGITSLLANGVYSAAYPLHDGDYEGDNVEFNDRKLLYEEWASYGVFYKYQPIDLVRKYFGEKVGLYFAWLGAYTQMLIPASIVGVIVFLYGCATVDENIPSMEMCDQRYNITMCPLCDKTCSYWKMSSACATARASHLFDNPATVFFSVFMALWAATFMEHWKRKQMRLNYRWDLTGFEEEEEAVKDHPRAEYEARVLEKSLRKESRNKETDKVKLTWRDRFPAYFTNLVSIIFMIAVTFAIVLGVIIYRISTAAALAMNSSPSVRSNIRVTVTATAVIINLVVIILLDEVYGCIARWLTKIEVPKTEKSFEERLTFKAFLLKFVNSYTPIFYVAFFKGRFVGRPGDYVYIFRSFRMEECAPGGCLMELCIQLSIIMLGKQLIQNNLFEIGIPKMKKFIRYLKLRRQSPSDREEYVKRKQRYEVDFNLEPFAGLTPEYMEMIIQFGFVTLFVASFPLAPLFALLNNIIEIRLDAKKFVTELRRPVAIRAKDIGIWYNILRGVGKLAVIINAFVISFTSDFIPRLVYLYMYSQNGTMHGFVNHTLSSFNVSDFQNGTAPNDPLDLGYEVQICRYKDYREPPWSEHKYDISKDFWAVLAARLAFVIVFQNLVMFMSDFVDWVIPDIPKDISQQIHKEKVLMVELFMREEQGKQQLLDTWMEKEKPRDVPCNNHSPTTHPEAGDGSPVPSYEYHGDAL

[2] = molecular target: NCX3 (Na+/Ca2+ exchanger 3, encoded by Slc8a3) (mouse (endogenous in small intestine muscle and ICC)) (UniProt S4R2P9); test: as above

- binding [1]: binds
Molecule: NCX3 (Na+/Ca2+ exchanger 3, encoded by Slc8a3) (from UniProt S4R2P9-1 31-928)

- binding [2]: binds
B1: ANO1 (Ca2+-activated Cl- channel encoded by Ano1) (protein, UniProt Q8BHY3 1-960)
chain: T1 sequence
